Usually AC50 stands for the midpoint of the concentration-response curve, whichever way the signal moves.

This is an account of results in PubChem BioAssay AID2685 (National Center for Advancing Translational Sciences (NCATS), 2010).

Some of the results follow. The main result of the screen is listed elsewhere. These columns were measured beside it and carry no call. The list favours compounds with an active or inconclusive main result. Words in brackets tell the shape of the fitted curve; partial curves, single points and poor fits give uncertain potencies.

This assay is described as follows: qHTS Assay for Lipid Storage Modulators in Drosophila S3 Cells.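 On cell number change: cells counted by Cell Tracker Red CMTPX staining in the red channel.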 To be noted: BODIPY lipid droplet fluorescence, 18-24 h; for cell number change: measured here: cell count max response, cells fed with added oleic acid. The method in brief:
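Drosophila S3 cells loaded with oleic acid (400 uM, as added) and compounds at several concentrations; lipid droplets imaged by 488-nm laser-scanning cytometry, 500–530 nm intensity and object ratio to cell channel. Percent activity normalized to 20 uM Triacsin C.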
For orientation: Quantitative high-throughput screening tests each substance at several concentrations.

The mark [1] stands for this setting: measured here: lipid fluorescence (Fed channel) AC50, cells fed with added oleic acid.
Setting [2] is: measured here: cell number channel AC50, cells fed with added oleic acid.

Regarding `CCC(C)NC(=O)C1CC(c2cccc(OC)c2)=NO1` (stereo not given), the cell number change is -28.4%. Besides, the AC50 under setting [1] was 32600 nM [falling, single point].

`Cc1onc(-c2ccccc2)c1C(=O)NCCc1ccc(Cl)cc1`: the cell number change is -20.4%. Also, the AC50 under setting [1] was 2590 nM [falling, partial curve].

In the case of `O=C(Cc1ccc(Br)cc1)N1CCc2ccccc2C1`, the cell number change was -8.21%.

For `CCOc1cc(/C=N/Nc2nc(Nc3ccccc3)nc(N3CCCCC3)n2)ccc1OCC(=O)O`, the cell number change amounted to 38.7%. Under setting [2], the AC50 was 651 nM [rising, partial curve]. Further, the AC50 under setting [1] was 820 nM [rising, full curve, poor fit].

Turning to `O=C1NC(=Nc2ccccc2)SC1Cc1ccccc1` (stereo not given), the cell number change is 7.07%.

`COc1ccc(-c2nc3cnccn3c2NCc2ccccc2)cc1SC1CCCCC1`: the cell number change was -41.5%. Besides, under setting [2], the AC50 was 16400 nM [falling, single point]. Also, the AC50 under setting [1] is 20600 nM [falling, partial curve].

As to `COc1ccc(CNc2nc3nc(C)c(Cl)c(=O)n3[nH]2)cc1OC`, the cell number change was -15.9%. For the same compound, under setting [1], the concentration at half-maximal activity (AC50) is 23100 nM [falling, partial curve].

With `Cc1sc2nc(CN(C(=O)NC3CCCCC3)C3CCCC3)[nH]c(=O)c2c1C`, the cell number change amounted to 34.6%. For the same compound, the AC50 under setting [1] was 1300 nM [rising, full curve].

With `Cc1cc(C)n(CC(C)NCc2cn[nH]c2-c2cccc3ccccc23)n1` (stereo not given), the cell number change stood at 2.79%. Further, the AC50 under setting [1] was 731 nM [rising, full curve, poor fit].

With `CCCC(=O)C1=C(N2CCCC2)CC(C)(C)C(C(=O)OC)C1=O` (stereo not given), the cell number change was 38.7%. In addition, the AC50 under setting [2] is 1300 nM [rising, full curve, poor fit]. Under setting [1], the AC50 is 326 nM [rising, full curve, poor fit].

Regarding `O=C(COc1ccc(Cl)cc1)N1CCCCCCC1`, the cell number change is -18.1%.

Take `O=C(NCCOc1ccccc1Cl)C(=O)NCCOc1ccccc1Cl`: the cell number change was 36.3%. The AC50 under setting [2] is 206 nM [rising, full curve, poor fit].

As to `Cc1ccc(C)c(NC(=O)CSc2ccc(-c3cccs3)nn2)c1`, the cell number change was 44.8%. For the same compound, under setting [2], the half-maximal activity concentration (AC50) is 29100 nM [rising, single point]. Besides, the AC50 under setting [1] is 16400 nM [falling, single point].

With `COc1ccccc1C(=O)NCc1nnc(SC(C)C(=O)Nc2nccs2)n1C` (stereo not given), the AC50 under setting [1] was 580 nM [falling, single point].

In the case of `CC(=O)Nc1ccc(N/C(N)=N/c2nc(C)cc(C)n2)cc1`, the cell number change was determined as 18.4%. The AC50 under setting [1] is 13000 nM [rising, partial curve].

As for `Cc1cnn(-c2nc(-c3cccs3)cc(C(F)(F)F)n2)c1`, the cell number change was -2.9%. For the same compound, the AC50 under setting [1] is 32600 nM [falling, single point].

As for `COc1ccc(SCC(=O)c2cc(C)c(OC(=S)N(C)C)c(C)c2)cc1`, the cell number change amounted to 36.2%. Further, the AC50 under setting [2] was 5170 nM [rising, partial curve]. In addition, under setting [1], the AC50 was 14600 nM [rising, partial curve].

For the compound `O=C(CCCCn1c(=O)c2ccccc2n(CC(=O)Nc2cccc(F)c2)c1=O)NCc1ccco1`, the cell number change was -25%. For the same compound, the AC50 under setting [1] was 1160 nM [rising, single point].

`Cc1ccc(NC(=O)c2ccc(S(=O)(=O)NCC3CCCO3)cc2)cc1` (stereo not given): the AC50 under setting [1] was 6510 nM [rising, single point].

Take `CCOc1ccc(NC(=O)CS(=O)CC(=O)Nc2cccnc2)cc1` (stereo not given): the cell number change is 8.97%. Also, the AC50 under setting [1] was 5170 nM [falling, single point].

For `CCOC(=O)N1CCN(C(=O)CSc2nnc(CNC(=O)c3c(F)cccc3Cl)o2)CC1`, the AC50 under setting [1] is 6510 nM [falling, partial curve].

For `COc1cc2c(cc1OC)C(C(=O)O)C(c1ccc(C)o1)N(C)C2=O` (stereo not given), the cell number change was -6.23%. For the same compound, under setting [2], the AC50 was 1300 nM [falling, full curve].

Take `Cc1cc(C)c(S(=O)(=O)N2CCN(C(=O)c3cc(=O)[nH]c4ccccc34)CC2)c(C)c1`: the cell number change is 8.71%. Under setting [1], the AC50 is 1840 nM [rising, partial curve, poor fit].

In the case of `CCc1nn(CC(=O)NCCCN2CCN(C)CC2)c(=O)c2cc3sccc3n12`, the cell number change was 4.13%. The AC50 under setting [1] is 16400 nM [rising, single point].

Take `O=C1c2c(Br)c(Br)c(Br)c(Br)c2C(=O)N1c1ccccn1`: the cell number change is -51.4%. For the same compound, the AC50 under setting [2] was 18400 nM [falling, single point]. The AC50 under setting [1] is 2910 nM [falling, full curve].

On to `CCN(C(=O)COC(=O)CSc1ccc(F)cc1)c1c(N)n(Cc2ccccc2)c(=O)[nH]c1=O`, for which the cell number change was 2.98%.

On to `Cc1cc(NS(=O)(=O)c2ccc(NC(=O)CCCOc3ccccc3C)cc2)no1`, for which the cell number change stood at 1.28%. For the same compound, under setting [1], the AC50 is 116 nM [falling, single point].

On to `CCC(=O)OCCn1c(=O)c2ccccc2c2ccccc2c1=O`, for which the cell number change is -14.5%. The AC50 under setting [1] is 2590 nM [falling, full curve].

Regarding `COc1ccc(-n2nc(C(=O)NCC(=O)N3CCN(c4ccccc4F)CC3)c3ccccc3c2=O)cc1OC`, the cell number change worked out at 3.85%. Also, under setting [2], the AC50 was 5800 nM [rising, partial curve, poor fit].

For `Cn1nc(C(=O)NCc2ccccc2CN2CCCC2)c2ccccc2c1=O`, the cell number change amounted to 4.82%.

In the case of `COCCNC(=O)c1cc(-c2ccccc2)n(Cc2cc(C)no2)n1`, the cell number change is 27.5%.

`O=C(O)COc1ccc(Oc2ccccc2)cc1`: the cell number change is -57.5%. The AC50 under setting [2] is 20600 nM [falling, partial curve, poor fit]. The AC50 under setting [1] was 16400 nM [falling, partial curve].

Consider `S=C(Nc1ccc2nsnc2c1)N1CCCCC1`, for which the cell number change was -0.784%. The AC50 under setting [1] was 4.61 nM [falling, full curve, poor fit].

As for `O=C(O)CCc1nnc2n(Cc3ccc(F)cc3)c(=O)c3ccccc3n12`, the cell number change was 11%.

Turning to `CC(=O)c1cc2c(cc1NS(=O)(=O)c1ccc3c(c1)OCCO3)OCO2`, the cell number change came out at 13.7%. In addition, the AC50 under setting [1] is 1460 nM [rising, partial curve].

For `O=C(CCCc1c[nH]c2ccccc12)N1CCN(c2ccc(N3CCOCC3)nn2)CC1`, the cell number change was -31%. In addition, under setting [2], the half-maximal activity concentration (AC50) was 18400 nM [falling, single point]. Moreover, the AC50 under setting [1] was 32600 nM [falling, single point].

For the compound `O=[N+]([O-])c1ccc(Oc2cccc(Br)c2)c2ccncc12`, the cell number change amounted to 41.3%. Moreover, under setting [2], the AC50 is 4110 nM [rising, full curve]. The AC50 under setting [1] is 580 nM [falling, single point].

For `COc1ccc(NC(=O)CCC(=O)c2ccc(Cl)cc2)cn1`, the cell number change was determined as 15%. Also, the AC50 under setting [1] is 291 nM [rising, full curve, poor fit].

Turning to `C=CCOC(=O)C1=C(C)NC(SCC(=O)OCC)=C(C#N)C1c1ccc(C)cc1` (stereo not given), the cell number change was -20.2%. Besides, the AC50 under setting [1] was 29100 nM [falling, single point].

Regarding `Cc1ccccc1C(=O)Nc1ccccc1C(=O)N1CCC(C)CC1`, the cell number change is -19.2%. For the same compound, the AC50 under setting [1] was 130 nM [falling, full curve].

`NS(=O)(=O)c1ccc(Nc2nc(-c3ccccc3)cs2)cc1`: the AC50 under setting [2] was 1840 nM [rising, partial curve].

In the case of `COCCNc1cc(C)nc2cc(-c3ccc(C)cc3)nn12`, under setting [1], the AC50 was 6510 nM [rising, partial curve, poor fit].

On to `Cn1c(SCC(=O)N2CCCC2=O)nc2ccccc21`, for which the cell number change is -44.6%. The AC50 under setting [2] is 164 nM [falling, full curve, poor fit]. For the same compound, the AC50 under setting [1] was 116 nM [falling, full curve].

In the case of `C=CCN1C(=O)C2(C(C(=O)c3ccc(C)o3)=C(O)C(=O)N2CCCN2CCOCC2)c2ccccc21` (stereo not given), the cell number change was -2.37%. Moreover, under setting [1], the AC50 is 206 nM [rising, partial curve, poor fit].

On to `Cc1cccc(NC(=O)c2cc(S(=O)(=O)N3CCOCC3)cn2C)c1C`, for which the cell number change is 19.3%. In addition, the AC50 under setting [1] was 29100 nM [rising, single point].

With `Cc1ccc2nc(-c3ccccn3)cc(C(=O)N3CCN(c4ncccn4)CC3)c2c1`, the cell number change was found to be 32.4%. For the same compound, the AC50 under setting [2] is 820 nM [rising, full curve]. For the same compound, under setting [1], the AC50 is 731 nM [rising, full curve].

Turning to `CCc1ccccc1N1CC23C=CC(O2)C(C(=O)OC)C3C1=O` (stereo not given), the cell number change is -34.9%. In addition, the AC50 under setting [2] was 259 nM [falling, full curve, poor fit]. For the same compound, the AC50 under setting [1] is 920 nM [falling, full curve].

`CN1C(=O)C(CC(=O)Nc2ccc3c(c2)Cc2ccccc2-3)N(C)C1=O` (stereo not given): the cell number change is -20.6%.

As to `COc1ccc(OC)c(NC(=O)Nc2cccc(Cn3cccn3)c2)c1`, the cell number change was -94.8%. Further, the AC50 under setting [2] was 29100 nM [falling, single point]. Besides, under setting [1], the AC50 was 29100 nM [falling, single point].

Turning to `O=C(COC(=O)c1c2c(nc3ccccc13)/C(=C/c1ccco1)CC2)NC1CCCC1`, the cell number change was found to be 5.91%. Further, under setting [2], the AC50 is 7310 nM [falling, single point]. The AC50 under setting [1] is 6510 nM [falling, single point].

As to `CC1CCCN(CC(=O)N2c3ccccc3Sc3ccccc32)C1` (stereo not given), the cell number change stood at 86.4%. Further, the AC50 under setting [2] is 2590 nM [rising, full curve].

For `COc1ccccc1N(C1=NCCCS1)S(=O)(=O)c1ccc(C(C)(C)C)cc1`, the cell number change is -19.8%. The AC50 under setting [1] is 9200 nM [falling, partial curve].

For `COC(=O)CCNC(=O)Cc1ccc(S(=O)(=O)N2CCCCC2)s1`, the cell number change was -10.4%.

For `COc1cc(NC(=O)CSc2nccc(=O)[nH]2)c(C)cc1[N+](=O)[O-]`, the cell number change was 118%. Further, the AC50 under setting [2] is 18400 nM [rising, single point].

With `CCOCCCNC(=O)COC(=O)/C=C/c1ccc(S(=O)(=O)N2CCc3ccccc32)cc1`, the cell number change stood at 13.1%. Further, under setting [2], the AC50 was 1160 nM [rising, single point]. In addition, under setting [1], the AC50 is 920 nM [rising, full curve, poor fit].

For the compound `O=C(Nc1ccc(Cl)cc1)Nn1cnc2ccccc2c1=O`, the cell number change came out at 7.08%. In addition, the AC50 under setting [1] is 1160 nM [rising, single point].

With `Cc1ccc(CSc2nnc(-c3ccc(S(=O)(=O)N4CCCC4)cc3)o2)cc1`, the AC50 under setting [2] is 58 nM [rising, single point].

For the compound `COc1cccc(N2CCN(C(=O)c3ccc4nc[nH]c4c3)CC2)c1`, the AC50 under setting [1] was 6510 nM [rising, single point].
